Measured values from patent publication US8703098B2, “Labelled adrenomedullin derivatives and their use for imaging and therapy” (Institut de Cardiologie de Montreal, priority 2004, dated 2014).
Entries after “also recorded” stand apart in the source; their conditions may differ. At least one peptide structure holds a part that was inferred or is arguable (an end, a ring closure or a residue).

Experiment: Gamma camera lung perfusion imaging with 99mTc-DTPA-hAM1-52 in normal dogs and after selective surgical pulmonary lobectomy
Type: in vivo, dog

Compound: CC[C@H](C)[C@H](NC(=O)[C@H](CCC(N)=O)NC(=O)[C@H](Cc1c[nH]cn1)NC(=O)[C@H](C)NC(=O)[C@H](CC(C)C)NC(=O)[C@H](CCCCN)NC(=O)[C@H](CCC(N)=O)NC(=O)[C@@H](NC(=O)[C@@H](NC(=O)[C@@H]1CSSC[C@H](NC(=O)CNC(=O)[C@H](Cc2ccccc2)NC(=O)[C@H](CO)NC(=O)[C@H](CCCNC(=N)N)NC(=O)[C@H](CC(C)C)NC(=O)CNC(=O)[C@H](CCC(N)=O)NC(=O)[C@H](Cc2ccccc2)NC(=O)[C@H](CC(N)=O)NC(=O)[C@H](CC(N)=O)NC(=O)[C@H](CCSC)NC(=O)[C@H](CO)NC(=O)[C@H](CCC(N)=O)NC(=O)[C@H](CCCNC(=N)N)NC(=O)[C@H](Cc2ccc(O)cc2)NC(=O)CN(CCN(CCN(CC(=O)O)CC(=O)O)CC(=O)O)CC(=O)O)C(=O)N[C@@H](CCCNC(=N)N)C(=O)N[C@@H](Cc2ccccc2)C(=O)NCC(=O)N[C@@H]([C@@H](C)O)C(=O)N1)[C@@H](C)O)C(C)C)C(=O)N[C@@H](Cc1ccc(O)cc1)C(=O)N[C@@H](CCC(N)=O)C(=O)N[C@@H](Cc1ccccc1)C(=O)N[C@H](C(=O)N[C@@H](CC(=O)O)C(=O)N[C@@H](CCCCN)C(=O)N[C@@H](CC(=O)O)C(=O)N[C@@H](CCCCN)C(=O)N[C@@H](CC(=O)O)C(=O)N[C@@H](CC(N)=O)C(=O)N[C@H](C(=O)N[C@@H](C)C(=O)N1CCC[C@H]1C(=O)N[C@@H](CCCNC(=N)N)C(=O)N[C@@H](CO)C(=O)N[C@@H](CCCCN)C(=O)N[C@H](C(=O)N[C@@H](CO)C(=O)N1CCC[C@H]1C(=O)N[C@@H](CCC(N)=O)C(=O)NCC(=O)N[C@@H](Cc1ccc(O)cc1)C(N)=O)[C@@H](C)CC)C(C)C)[C@@H](C)O [99mTc-DTPA-hAM1-52, metal not drawn]
- distribution of the tracer in gamma camera image of a normal animal (dog, normal (FIG. 8)): Homogeneous distribution of the tracer is evident in the lungs
- detection of perfusion defect by external imaging after selective pulmonary lobectomy (dogs, surgical ligature of the right median lobe): evident perfusion defect which allows the diagnosis by external imaging; also recorded: anatomically corresponding perfusion defects were easily detectable by external imaging
